These results are taken from PMC9963887 (Pharmaceuticals, 2023).

Data set [1] can be described thus: general procedure: Fmoc solid-phase peptide synthesis; Rink amide MBHA LL; HBTU/DIPEA; PyBOP for (R)-NODA-GA(tBu)3. To be noted: whole synthesis.
A short description of data set [2]: general procedure: Fmoc solid-phase peptide synthesis; Fmoc-Ile-Wang resin LL; HBTU/DIPEA; PyBOP for (R)-NODA-GA(tBu)3. To be noted: whole synthesis.
Data set [3] is described as follows: general procedure: Fmoc solid-phase peptide synthesis; Fmoc-Thr(tBu) Wang resin; HBTU/DIPEA; PyBOP for (R)-NODA-GA(tBu)3. To be noted: whole synthesis, scale 30.3 µmol.
The nature of data set [4]: general procedure: Fmoc solid-phase peptide synthesis; Fmoc-Thr(tBu)-Wang; HBTU/DIPEA; PyBOP for (R)-NODA-GA(tBu)3. To be noted: whole synthesis, scale 32.5 µmol.
A short description of data set [5]: general procedure: Fmoc solid-phase peptide synthesis; Fmoc-Asn(Trt)-2-Cl-Trt resin; HBTU/DIPEA; PyBOP for (R)-NODA-GA(tBu)3. To be noted: whole synthesis, scale 44 µmol.

Regarding “Gln-Arg-His-Lys-Pro-Arg-Glu-PEG5-Lys(NODA-GA)-NH2”, the isolated yield in data set [1] (scale 27 µmol) was 50%. In turn, “Asn-Arg-Pro-Asp-Ser-Ala-Gln-Phe-Trp-Leu-His-His-PEG5-Lys(NODA-GA)-NH2” registered an isolated yield in data set [1] (scale 36 µmol) of 49%. In data set [2], “NODA-GA-PEG5-Tyr-His-Trp-Tyr-Gly-Tyr-Thr-Pro-Gln-Asn-Val-Ile” had an isolated yield of 50%. The substance “NODA-GA-PEG5-Ser-Tyr-Pro-Ile-Pro-Asp-Thr” had an isolated yield in data set [3] of 59%. In turn, NODA-GA-PEG5-Leu-Ala-Arg-Leu-Leu-Thr showed an isolated yield in data set [4] of 74%. For the substance “Tyr-c[Cys-Leu-His-Aps-Gly-Val-Cys-Met-Tyr-Ile-Glu-Ala-Leu-Asp-Lys-Tyr-Ala-Cys]-Asn-PEG5-Lys(NODA-GA)-NH2”, in data set [1] (scale 27 µmol), the isolated yield is given as 5%.

“Glu-c[Cys-Pro-Leu-Ser-His-Asp-Gly-Tyr-Cys-Leu-His-Asp-Gly-Val-Cys]-Met-PEG5-Lys(NODA-GA)-NH2” yielded an isolated yield in data set [1] of 22%. Take “NODA-GA-PEG5-His-Thr-Ser-Asp-Gln-Thr-Asn”: in data set [5], the isolated yield stood at 21%.

“Trp-Ser-Gly-Glu-Asn-Gly-Pro-Gly-Phe-Tyr-Asp-Tyr-Glu-Ala-PEG5-Lys(NODA-GA)-NH2” displayed an isolated yield in data set [1] (scale 36 µmol) of 54%. Turning to “Phe-Pro-Met-Phe-Asn-His-Trp-Glu-Gln-Trp-Pro-Pro-PEG5-Lys(NODA-GA)-NH2”, the isolated yield in data set [1] (scale 36 µmol) is recorded as 32%. In turn, “Asn-c[Cys-Val-Val-Gly-Tyr-Ile-Gly-Glu-Arg-Cys]-Gln-PEG5-Lys(NODA-GA)-NH2” gave an isolated yield in data set [1] (scale 27 µmol) of 10%.
